Assay results reported in patent US20130302346A1 (LEXICON PHARMACEUTICALS, published 2013).
Where a chain is given by its changes, count along the chain named. These are yes or no findings as the source states them, for the method shown. Some results given as binding are weak or reduced against the parent protein; the word gives no strength.

B1: Humanized MAb 1.802 (antibody, human IgG2, kappa, V domains shown)
VH: EVQLVESGGGLVQPGGSLRLSCAASGFTFSDYGMHWVRQAPGKGLEWVSYISSGSRTVYYADSVKGRFTISRDNAKNSLYLQMNSLRDEDTAVYYCARKHYNGGYFDVWGQGTLVTVSS
VL: DIVMTQSPDSLAVSLGERATINCRASKIVSTSGYSYMHWYQQKPGQPPKLLIYLASNLESGVPDRFSGSGSGTDFTLTISSLQAEDVAVYYCQHSRELPPTFGQGTKLEIKR
B2: Humanized MAb 1.815 (antibody, human IgG2, kappa, V domains shown)
VH: QVQLVESGGGLVKPGGSLRLSCAASGFTFSDFGMHWIRQAPGKGLEWVSYSSSGGTTVYYADSVKGRFTISRDNAKNSLYLQMNSLRAEDTAVYYCARASYDGGYFDCWGQGTTVTVSS
VL: B1 VL with I28S, M37I, N57D, Q93H, P100F
B3: Humanized MAb 1.846 (antibody, human IgG2, kappa, V domains shown)
VH: B1 VH with R56T, V58L, Y59S, H100N
VL: B1 VL with I28S, T31E, E97V
B4: Humanized MAb 2.1029 (antibody, human IgG2, kappa, V domains shown)
VH: QVQLQESGPGLVKPSETLSLTCTVSGFSLTSYGVHWIRQPPGKGLEWIGVIWAGGSTNYNPSLKSRVTISVDTSKNQFSLKLSSVTAADTAVYYCARDGDYGTIYAMDYWGQGTLVTVSS
VL: DIQMTQSPSSLSASVGDRVTITCRASQDISNYLNWYQQKPGKAPKLLIYYTSRLHSGVPSRFSGSGSGTDFTFTISSLQPEDIATYYCQQGKTLPRTFGGGTKVEIKR

What follows are binders tested against T1, Human NOTUM (human, UniProt Q6P988 20-496) (assay: ELISA with conditioned medium).
T1 sequence: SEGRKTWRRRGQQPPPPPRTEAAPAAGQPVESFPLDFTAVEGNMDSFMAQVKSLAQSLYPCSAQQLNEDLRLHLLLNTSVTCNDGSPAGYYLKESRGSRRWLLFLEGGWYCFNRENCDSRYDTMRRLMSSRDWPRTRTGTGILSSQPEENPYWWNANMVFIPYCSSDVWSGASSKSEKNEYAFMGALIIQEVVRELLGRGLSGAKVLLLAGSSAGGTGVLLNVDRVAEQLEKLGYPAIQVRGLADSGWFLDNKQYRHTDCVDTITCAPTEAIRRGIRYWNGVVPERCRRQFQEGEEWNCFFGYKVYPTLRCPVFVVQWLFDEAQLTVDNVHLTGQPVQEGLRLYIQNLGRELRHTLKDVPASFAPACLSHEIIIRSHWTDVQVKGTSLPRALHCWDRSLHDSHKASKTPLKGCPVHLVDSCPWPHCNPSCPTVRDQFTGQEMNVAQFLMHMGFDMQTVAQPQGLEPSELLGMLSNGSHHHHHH

binding, binds:
B1
B2
B3
B4
